Measurements taken from PubChem BioAssay AID624415 (National Center for Advancing Translational Sciences (NCATS), 2012).
Hit rate of the full screen: of about 390,000 compounds, about 60 (0.02%) were called active. The inconclusive results got no clear call from the source; some entries with a clear call stand among them for comparison. Rule as the data show it: active = activity change below about -50%; inconclusive = between about -30% and that limit; inactive = weaker than that.

The chains behind the UniProt entries cited, without tags or fusion partners.
UniProt Q9GZU1, whole entry, looked up: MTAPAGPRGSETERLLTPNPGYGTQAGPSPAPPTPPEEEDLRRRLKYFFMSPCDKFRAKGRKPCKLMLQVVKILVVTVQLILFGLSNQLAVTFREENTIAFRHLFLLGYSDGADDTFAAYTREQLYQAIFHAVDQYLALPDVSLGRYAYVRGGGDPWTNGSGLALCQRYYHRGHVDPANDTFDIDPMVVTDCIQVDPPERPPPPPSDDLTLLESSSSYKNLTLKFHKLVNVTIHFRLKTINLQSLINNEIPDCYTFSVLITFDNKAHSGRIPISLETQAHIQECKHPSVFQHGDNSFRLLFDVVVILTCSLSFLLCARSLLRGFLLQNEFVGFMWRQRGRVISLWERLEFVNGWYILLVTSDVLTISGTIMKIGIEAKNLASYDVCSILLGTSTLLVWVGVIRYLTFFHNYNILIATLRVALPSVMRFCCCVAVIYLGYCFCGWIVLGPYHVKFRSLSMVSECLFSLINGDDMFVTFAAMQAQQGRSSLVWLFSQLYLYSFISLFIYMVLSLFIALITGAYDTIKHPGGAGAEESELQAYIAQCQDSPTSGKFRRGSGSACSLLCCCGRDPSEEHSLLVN

These compounds were tested against Mucolipin-1 (Homo sapiens) (UniProt Q9GZU1) (assay: qHTS for Inhibitors of the Human Mucolipin Transient Receptor Potential 1 (TRPML1)). Conditions: TRPML1-inducible cells, Ca2+ dye fluorescence, FDSS; active compounds read low; inhibition of EC80 agonist-evoked calcium signal.
Summary of the method: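 TRPML1-DL cells, Tet-induced overnight (~16 h, 37 °C) at 1,500 cells/well, were loaded with Ca8 no-wash dye plus quencher for 45-90 min at room temperature. Compounds were pinned during FDSS kinetic reading; agonist 54-4 at EC80 (4 uM final) then added.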
% is scaled to controls: 0 for no effect and ±100 for the full control effect.
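Also: stimulus is agonist 54-4 at its EC80 concentration.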

Row | Compound | activity change, negative = inhibition
1 | O=C1C=C(O)c2[nH]c(=O)ccc2C1=O | inactive: -11.9%
2 | CCNC(=O)c1ccc2nc(CCc3ccccc3)oc2c1 | inconclusive: -30.9%
3 | O=C(O)c1cccc(N2C(=O)c3cccc4c(Cl)ccc(c34)C2=O)c1 | inactive: -3.84%
4 | Cc1ccc(-c2noc(-c3ccc(NCc4ccco4)c([N+](=O)[O-])c3)n2)cc1 | inconclusive: -33%
5 | COc1cccc(NC(=O)c2cccc(N3C(=O)C4CCC(C)CC4C3=O)c2)c1 (stereo not drawn) | inactive: 25.7%
6 | COc1ccc(/C=N/N2C(=N)SCC2=O)cc1 | inconclusive: -30.9%
7 | Cc1cc(/C=C2/C(=O)N(C)C(=S)N2C)ccc1N1CCCC1 | inactive: -6.67%
8 | O=C(CSc1nnc(-c2ccccc2)o1)NCC1CCCCC1 | inconclusive: -34.3%
9 | CSc1ccccc1C(=O)Nc1ccc2c(c1)OCCO2 | inconclusive: -33.1%
10 | Cc1cccc(S(=O)(=O)NC(=O)C2(C)CCN2C(=O)c2c(C)noc2C)c1 (stereo not drawn) | inconclusive: -37.9%
11 | COc1cc(OC)cc(C(=O)NCc2ccc3c(c2)CCN3C(=O)c2ccccc2)c1 | inconclusive: -37.1%
12 | COc1ccccc1N1CCN(C(=O)NCc2cccc(C(F)(F)F)c2)CC1 | inconclusive: -30.3%
13 | Cc1onc(-c2c(F)cccc2Cl)c1C(=O)Nc1nc2ccccc2[nH]1 | inconclusive: -32.5%
14 | O=S(=O)(NCc1ccc(C(F)(F)F)cc1)c1ccc(-n2cnnn2)cc1 | inconclusive: -31.4%
15 | COc1cccc(N2C(=O)C3CCCN3C2=S)c1 (stereo not drawn) | inconclusive: -31.1%
16 | CC(C)(C)OC(=O)N[C@@H](Cc1ccccc1)c1nnc(SCC(N)=O)o1 | inconclusive: -38.3%
17 | COC(=O)c1ccc(C(=O)OC)c(NC(=S)N2CCOCC2)c1 | inconclusive: -31.4%
18 | Cc1ccc(-n2nc(CO)c(C(=O)NCC(c3ccccc3)c3ccccc3)n2)cc1 | inconclusive: -35.3%
19 | CC1=C(C(=O)N(C)C)CC(CC(=O)NC2CC2)C(=O)N1Cc1ccc(C(C)(C)C)cc1 (stereo not drawn) | inconclusive: -33.3%
20 | N#CC1=C(N)OC2=C(C(=O)CCC2)C1c1cc2c(cc1Br)OCO2 (stereo not drawn) | inconclusive: -39.8%
21 | O=C(COc1ccccc1)N1CCN(S(=O)(=O)c2cccs2)CC1 | inactive: -12.1%

Row | Compound | activity change, negative = inhibition
22 | NC(=O)c1c(NC(=O)CS(=O)(=O)c2ccc(Cl)cc2)sc2c1CCCC2 | inconclusive: -35.5%
23 | CCc1ccc(N2CC(C(=O)Nc3nc4ccc(S(C)(=O)=O)cc4s3)CC2=O)cc1 (stereo not drawn) | inconclusive: -31.3%
24 | Cc1cc(C)n(-c2cc(C(C)(C)C)nc3c(-c4ccccc4)cnn23)n1 | inconclusive: -35.3%
25 | CCOC(=O)c1oc2cc(O)c(CC)cc2c(=O)c1-c1cscn1 | inconclusive: -33.1%
26 | Cc1ccccc1NC(=S)NC(=O)C1CCCCC1 | inactive: 0.361%
27 | CCN1CCN(C(=O)c2cc(-c3ccco3)nc3ccccc23)CC1 | inconclusive: -35.6%
28 | Cc1cc(OC(C)C(=O)N(Cc2ccco2)Cc2ccco2)cc(C)c1Cl (stereo not drawn) | inactive: 48.1%
29 | Oc1ccc(C(=Nc2ccccc2)c2ccccc2)c(O)c1 | inactive: 4.05%
30 | O=[N+]([O-])c1c(NCCCO)cc(Sc2nc3ccccc3s2)c2nonc12 | inactive: 8.51%
31 | O=C1C(Nc2cccc(O)c2)=C(N2CCCCC2)C(=O)c2ccccc21 | inactive: -7.7%
32 | COC(=O)CC1COc2ccccc2N1C(=O)c1cccc(Cl)c1 (stereo not drawn) | inactive: 26.7%
33 | COc1ccc(OC)c(NC(=O)COC(=O)CCCN2C(=O)c3ccccc3C2=O)c1 | inconclusive: -38.4%
34 | CN1/C(=C\C=C2/SC(=S)N(CC(=O)O)C2=O)C(C)(C)c2ccccc21 | inactive: -13.3%
35 | O=C1COc2ccc(C(=O)CSc3nnc(-c4cccs4)n3Cc3ccccc3)cc2N1 | inconclusive: -32.6%
36 | O=C(c1cc(=O)[nH]c2ccccc12)N1CCN(c2ccc([N+](=O)[O-])cc2)CC1 | inconclusive: -36.8%
37 | CN(CC(O)COc1ccc2ccccc2c1)C1CCCCC1 (stereo not drawn) | inactive: 2.33%
38 | Cc1ccc(-c2cc(C(=O)N(C)Cc3cnn(C)c3C)c3cc(Br)ccc3n2)cc1 | inconclusive: -47.1%
39 | COC(=O)c1ccc(C2/C(=C(/O)c3ccc4c(c3)CC(C)O4)C(=O)C(=O)N2CCN2CCOCC2)cc1 (stereo not drawn) | inconclusive: -38.7%
40 | N#Cc1c(N)nc(SCC(=O)NC2CCCCC2)c(C#N)c1-c1ccc(Cl)cc1 | inactive: -3.33%
41 | Cc1nc2c(C(=O)NCc3ccc4c(c3)OCO4)c[nH]n2c(=O)c1Cc1ccccc1F | inconclusive: -30.8%
42 | O=C1CN(C(=O)COc2ncnc3ccccc23)c2ccccc2N1 | inactive: -3.8%

Row | Compound | activity change, negative = inhibition
43 | COc1cc(/C=C/C(=O)OCC(=O)N(CC(C)C)c2c(N)n(Cc3ccccc3)c(=O)[nH]c2=O)ccc1O | inconclusive: -35.3%
44 | Cc1ccc(NC(=O)Nn2cnnc2)c(C)c1 | inconclusive: -35.7%
45 | CCOC(=O)N1CCC(N2C(=O)c3ccccc3C2Nc2ccc3c(C)cc(=O)oc3c2)CC1 (stereo not drawn) | inactive: 13.6%
46 | CCc1nnc(NS(=O)(=O)c2ccc(NC(=S)NC(=O)/C=C/c3ccc(C(C)C)cc3)cc2)s1 | inactive: -4.46%
47 | Cc1ccc(-n2nc3c(=O)n(CCCC(=O)NCc4ccc(F)cc4)nc(C)c3c2C)cc1 | inconclusive: -49.7%
48 | CC(NC(=O)c1ccc(CS(C)(=O)=O)cc1)c1ccc(-c2ccccc2)cc1 (stereo not drawn) | inconclusive: -38%
49 | Cc1ccc(S(=O)(=O)NCC(=O)OCc2csc(-c3ccccc3)n2)cc1 | inactive: -9.82%
50 | CCc1nn2c(=O)cc(COc3ccc(NC(=O)c4ccco4)cc3)nc2s1 | inconclusive: -34.4%
51 | CCCOc1ccc(CNC(=O)Cn2c(=O)oc3ccccc32)cc1 | inconclusive: -36.8%
52 | O=C(Nc1ccc(Cl)cc1)c1ccc(Br)cc1F | inactive: 18.9%
53 | CN1CCN(c2cc(N3CCN(C(=O)c4ccco4)CC3)c3c4c(onc24)-c2ccccc2C3=O)CC1 | inactive: -11.3%
54 | O=C(NCCn1cccn1)C1CCC(=O)N(CCc2ccc(Cl)cc2)C1 (stereo not drawn) | inconclusive: -35.8%
55 | Cc1sc(NC(=O)CCCCC(=O)Nc2sc(C)c(C)c2C(=O)O)c(C(=O)O)c1C | inconclusive: -32.4%
56 | O=c1[nH]c(CN2CCN(c3ccccc3)CC2)nc2scc(-c3ccccc3)c12 | inactive: -17.8%
57 | Cc1cccc(NC(=O)c2oc3c(c2C)C(=O)CC(C)(C)C3)n1 | inconclusive: -37.8%
58 | CN1CCN(C2=C(Cl)C(=O)N(c3ccc(Cl)cc3)C2=O)CC1 | inactive: -3.49%
59 | COc1cccc(CNC(=O)c2ccc(-n3c(C)cc4c3CCCC4)cc2)c1 | inactive: -15.6%
60 | Cc1ccc(-c2cn3nc(N4CCCC(C(=O)NCc5ccc(F)cc5)C4)sc3n2)cc1 (stereo not drawn) | inactive: 10.8%
61 | COc1cccc(NC(=O)CN2C(=O)NC(C)(CC(C)C)C2=O)c1 (stereo not drawn) | inactive: -0.146%
62 | O=c1c2cc([N+](=O)[O-])ccc2sn1-c1ccccc1 | inconclusive: -33.9%
63 | CC(C)(C)c1cc(CCC(=O)Nc2ccncc2)cc(C(C)(C)C)c1O | inactive: 5.81%

Some of these compounds in order of heavy-atom count, rising:
Row | Compound | activity change, negative = inhibition
1 | O=C1C=C(O)c2[nH]c(=O)ccc2C1=O | inactive: -11.9%
9 | CSc1ccccc1C(=O)Nc1ccc2c(c1)OCCO2 | inconclusive: -33.1%
20 | N#CC1=C(N)OC2=C(C(=O)CCC2)C1c1cc2c(cc1Br)OCO2 (stereo not drawn) | inconclusive: -39.8%
51 | CCCOc1ccc(CNC(=O)Cn2c(=O)oc3ccccc32)cc1 | inconclusive: -36.8%
31 | O=C1C(Nc2cccc(O)c2)=C(N2CCCCC2)C(=O)c2ccccc21 | inactive: -7.7%
41 | Cc1nc2c(C(=O)NCc3ccc4c(c3)OCO4)c[nH]n2c(=O)c1Cc1ccccc1F | inconclusive: -30.8%

Continued:

Row | Compound | activity change, negative = inhibition
64 | COc1cccc(CNC(=O)c2cccc(NC(=O)CC3SC(N4CCCCC4)=NC3=O)c2)c1 (stereo not drawn) | inconclusive: -39.4%
65 | CC(C)=CCN1CCN(Cc2cnc(N3CCOCC3)s2)CC1CCO (stereo not drawn) | inconclusive: -32.1%
66 | O=C(C[C@H]1C/C=C\CC[C@H](Cc2ccc(F)cc2)C(=O)OC[C@H]2CCCN2C1=O)N[C@@H](CO)Cc1ccccc1 | inconclusive: -30.1%
67 | Cc1ccc(/C=N/Nc2ccc(F)cc2F)s1 | inconclusive: -36.2%
68 | Cc1ccn2c(Nc3ccccc3)c(-c3ccccn3)nc2c1 | inactive: -4.39%
69 | CC(C)Oc1ccc(S(=O)(=O)N2CCOCC2)cc1NC(=O)C1=COCCO1 | inactive: 45.5%
70 | CC(C)(C)[C@@H]1COC(=O)[C@H](Cc2ccc(F)cc2)CC/C=C\C[C@H](CC(=O)N(CCO)Cc2ccccc2)C(=O)N1 | inconclusive: -40.2%
71 | CC(C)(C)C1CCc2c(sc(NC(=O)c3cccs3)c2C(=O)N2CCCCC2)C1 (stereo not drawn) | inactive: 2.46%
72 | Cc1ccc2occ(CC(=O)Nc3ccc(S(=O)(=O)N4CCCC(C)C4)cc3)c2c1 (stereo not drawn) | inconclusive: -31.5%
73 | CCNC(=O)/C(C#N)=C/c1c(N(Cc2ccccc2)Cc2ccccc2)nc2ccccn2c1=O | inconclusive: -47.9%
74 | Cn1nc(C(=O)NCc2ccc(F)cc2)cc1C(=O)NCc1ccc(F)cc1 | inactive: 5.5%
75 | C#CCOCCOCCOCCNc1nc(N2CCN(C(=O)C([C@@H](C)O)n3cc([C@@H](N)CCCCN)nn3)CC2)nc(N2CCN(C(=O)[C@H](CCCCN)n3cc(CN)nn3)CC2)n1 (stereo partly drawn) | inconclusive: -37.8%
76 | Cc1ccc(F)c([C@H]2[C@H]3C=CC[C@@H](C)[C@@H]3C(=O)N2Cc2ccccc2)c1 | inactive: 44.4%
77 | COC(=O)c1cccc(NS(C)(=O)=O)c1 | active: -60.5%
78 | COc1ccc(C2=NC3(CCCCCC3)N(CC(=O)Nc3cccc(Cl)c3)C2=O)cc1 | inconclusive: -32.9%
79 | CCc1ccccc1NC(=O)N1CCc2cc(OC)c(OC)cc2C1CC(=O)OC (stereo not drawn) | inconclusive: -40.7%
80 | O=C(NC1CCCCC1)C(c1cccnc1)N(C(=O)CCl)c1ccccc1Cl (stereo not drawn) | inactive: 5.62%
81 | COc1ccc(NC(=O)c2ccc(Br)c(S(=O)(=O)N3CCOCC3)c2)cc1 | inactive: -5.93%
82 | Cc1ccc(C(=O)NC2CCN(CCCC(=O)c3ccc(F)cc3)CC2)cc1 | inactive: -11.4%
83 | O=C(O)CCN1C(=O)CC(N2C(=O)/C(=C/c3ccc(Cl)cc3)SC2=S)C1=O (stereo not drawn) | inactive: 5.61%
